PubChem BioAssay AID2685 (National Center for Advancing Translational Sciences (NCATS), 2010)
The list shows a part of the results. These are further read-outs of the screen, such as a control signal, another cell line or another target. No call is given for them. The list favours compounds with an active or inconclusive main result. The note in brackets gives the kind of curve behind each potency; many fits are weak.

Assay: qHTS Assay for Lipid Storage Modulators in Drosophila S3 Cells;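 for cell number change: cells counted by Cell Tracker Red CMTPX staining in the red channel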
Conditions: BODIPY lipid droplet fluorescence, 18-24 h; for cell number change: measured here: cell count max response, cells fed with added oleic acid
Procedure, shortened: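 Drosophila S3 cells got compounds at several concentrations plus oleic acid (400 uM solution). Laser-scanning cytometry with 488 nm excitation read lipid droplets at 500-530 nm and cells at 575-640 nm. Percent activity was relative to 20 uM Triacsin C.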

[1] = measured here: lipid fluorescence (Fed channel) AC50, cells fed with added oleic acid
[2] = measured here: cell number channel AC50, cells fed with added oleic acid

SMILES | cell number change [%] | AC50 [1] | AC50 [2]
O=C(NC1CCCC1)C(c1ccc(F)cc1)N(Cc1ccc(F)cc1)C(=O)CCl (stereo unspecified) | 8.45 | 8.2 µM [rising, partial curve] | –
COc1ccc(Cl)cc1NC(=O)Cn1c(=O)n2nc(C)nc2c2ccccc21 | – | 0.116 µM [rising, full curve, poor fit] | 0.13 µM [rising, full curve, poor fit]
CCOC(=O)c1ccc(NC(=O)c2ccc3c(c2)C(=O)N(CC2CCCO2)C3=O)cc1 (stereo unspecified) | -56 | 5.17 µM [falling, full curve] | 18.4 µM [falling, partial curve]
CCCCCCn1c(N(CC)CC)nc2c1c(=O)[nH]c(=O)n2C | 3.32 | 2.06 µM [rising, partial curve] | 0.82 µM [rising, full curve]
Fc1cccc(NC(=S)NCc2ccc(Cl)cc2)c1 | -11.5 | 2.06 µM [falling, partial curve] | 7.31 µM [falling, single point]
Cc1c(NC(=O)C(C#N)=C2CCCCC2)c(=O)n(-c2ccccc2)n1C | 1.36 | – | –
CCN(CC)S(=O)(=O)c1ccc2c(c1)nc(CCC(=O)Nc1cccc(C(F)(F)F)c1)n2CC | 119 | – | –
COc1cccc(-c2nn(-c3ccc(C)cc3)cc2C(=O)N(C)CC(=O)Nc2cccc(F)c2)c1 | – | 7.31 µM [falling, partial curve] | –
Cc1[nH]c2ccccc2c1C(C[N+](=O)[O-])c1ccco1 (stereo unspecified) | -30.4 | 18.4 µM [falling, single point] | 20.6 µM [falling, single point]
O=C(CC1CC2CCC1C2)N1CCN(S(=O)(=O)c2ccccc2F)CC1 (stereo unspecified) | 45.5 | 29.1 µM [rising, partial curve, poor fit] | 25.9 µM [rising, partial curve]
CC(=O)N1CCN(S(=O)(=O)c2cccc(C(=O)Nc3nc4c(s3)CCCC4)c2)CC1 | – | 0.58 µM [rising, single point] | –
O=[N+]([O-])c1ccc(Oc2ccc(S(=O)(=O)N3CCOCC3)cn2)cc1 | 11.6 | 0.58 µM [falling, single point] | –
COc1cc(/C=C2\SC(=S)N(N3CCOCC3)C2=O)cc(OC)c1OC | -10.9 | 7.31 µM [falling, single point] | –
CCOC(=O)CCC(=O)Nc1ccc(S(=O)(=O)Nc2cc(OC)nc(OC)n2)cc1 | 22.6 | 0.58 µM [rising, single point] | –
Cn1c(N=NC(=O)c2ccccc2)c(O)c2ccccc21 | 7.21 | 3.26 µM [falling, single point] | –
COc1cccc(-c2noc(-c3cccnc3)n2)c1 | -2.79 | – | –
CCCN1CCC(NC(=S)Nc2cccc(Cl)c2Cl)CC1 | 19.3 | – | –
CC(c1ccccc1)n1c(Cn2ncc3ccccc3c2=O)n[nH]c1=S (stereo unspecified) | 18 | 29.1 µM [falling, single point] | –
Cc1ccc(-c2nc3cccnc3s2)cc1NS(=O)(=O)c1ccc2c(c1)OCCO2 | – | 0.116 µM [rising, full curve, poor fit] | –
Cc1cc(C)nc(-n2nc(C)cc2NC(=O)c2ccc(F)cc2F)n1 | -24.6 | – | –

12 entries from above in a different format.

| SMILES | cell number change [%] | AC50 [1] | AC50 [2] |
| --- | --- | --- | --- |
| O=C(NC1CCCC1)C(c1ccc(F)cc1)N(Cc1ccc(F)cc1)C(=O)CCl (stereo unspecified) | 8.45 | 8.2 µM [rising, partial curve] | – |
| COc1ccc(Cl)cc1NC(=O)Cn1c(=O)n2nc(C)nc2c2ccccc21 | – | 0.116 µM [rising, full curve, poor fit] | 0.13 µM [rising, full curve, poor fit] |
| CCOC(=O)c1ccc(NC(=O)c2ccc3c(c2)C(=O)N(CC2CCCO2)C3=O)cc1 (stereo unspecified) | -56 | 5.17 µM [falling, full curve] | 18.4 µM [falling, partial curve] |
| CCCCCCn1c(N(CC)CC)nc2c1c(=O)[nH]c(=O)n2C | 3.32 | 2.06 µM [rising, partial curve] | 0.82 µM [rising, full curve] |
| Fc1cccc(NC(=S)NCc2ccc(Cl)cc2)c1 | -11.5 | 2.06 µM [falling, partial curve] | 7.31 µM [falling, single point] |
| Cc1c(NC(=O)C(C#N)=C2CCCCC2)c(=O)n(-c2ccccc2)n1C | 1.36 | – | – |
| CCN(CC)S(=O)(=O)c1ccc2c(c1)nc(CCC(=O)Nc1cccc(C(F)(F)F)c1)n2CC | 119 | – | – |
| COc1cccc(-c2nn(-c3ccc(C)cc3)cc2C(=O)N(C)CC(=O)Nc2cccc(F)c2)c1 | – | 7.31 µM [falling, partial curve] | – |
| Cc1[nH]c2ccccc2c1C(C[N+](=O)[O-])c1ccco1 (stereo unspecified) | -30.4 | 18.4 µM [falling, single point] | 20.6 µM [falling, single point] |
| O=C(CC1CC2CCC1C2)N1CCN(S(=O)(=O)c2ccccc2F)CC1 (stereo unspecified) | 45.5 | 29.1 µM [rising, partial curve, poor fit] | 25.9 µM [rising, partial curve] |
| CC(=O)N1CCN(S(=O)(=O)c2cccc(C(=O)Nc3nc4c(s3)CCCC4)c2)CC1 | – | 0.58 µM [rising, single point] | – |
| O=[N+]([O-])c1ccc(Oc2ccc(S(=O)(=O)N3CCOCC3)cn2)cc1 | 11.6 | 0.58 µM [falling, single point] | – |

(next part)

SMILES | cell number change [%] | AC50 [1] | AC50 [2]
Cc1ccc2nc(SCC(=O)Nc3ccc(C)c(Cl)c3)nc(=O)n2c1 | – | – | 1.84 µM [rising, partial curve]
COc1ccc(CCNC(=O)C2CCN(S(=O)(=O)c3ccc(NC(C)=O)cc3)CC2)cc1OC | 47.2 | 2.91 µM [rising, single point] | 9.2 µM [rising, partial curve]
COc1ccc(S(=O)(=O)N2CCN(Cc3cccnc3)CC2)cc1 | 15.5 | 29.1 µM [rising, single point] | –
Cc1ccc(N(CC(=O)NCc2ccco2)C(=O)CCC(=O)Nc2nccs2)c(C)c1 | -31.7 | – | 9.2 µM [falling, partial curve]
Cc1cc(Nc2ccc3c(c2)OCCO3)n2nc(C)nc2n1 | 1.22 | – | –
N#Cc1c(-c2ccccc2)c(-c2ccccc2)n[nH]c1=O | -48.2 | 29.1 µM [falling, single point] | 23.1 µM [falling, single point]
CCCC(=O)Nc1ccc(Cl)c(NC(=O)c2cccc(OC)c2)c1 | 6.33 | – | 1.84 µM [rising, partial curve]
CC(=O)N1CCN(C(=O)CCN(c2ccccc2)S(=O)(=O)c2ccc(C)cc2)CC1 | 12.5 | 0.13 µM [rising, full curve, poor fit] | –
COc1ccc(CN=C(C)c2c(C(F)(F)F)[nH]n(-c3nc4ccccc4s3)c2=O)cc1 | 17.3 | 0.92 µM [rising, partial curve] | 0.517 µM [rising, full curve]
Cc1cccc(NC(=O)c2cc(-c3ccc(C)s3)nc3ccccc23)n1 | 43.9 | 13 µM [rising, partial curve] | 11.6 µM [rising, partial curve]
Cc1ccnc(NC(=O)C2CC(=O)N(c3ccc4c(c3)OCCO4)C2)c1 (stereo unspecified) | 21.1 | 29.1 µM [rising, partial curve, poor fit] | –
Cc1c(C)n(CC(O)CNCCO)c2ccccc12 (stereo unspecified) | – | 0.116 µM [rising, full curve, poor fit] | –
CCOC(=O)c1cnn(-c2nc(SC)nc3sc4c(c23)CCCC4)c1N | 41.7 | 5.17 µM [rising, partial curve] | 1.84 µM [rising, full curve]
CC1CCN(S(=O)(=O)c2ccc3c(c2)C(=NO)c2cc(S(=O)(=O)N4CCC(C)CC4)ccc2-3)CC1 | -55.1 | 2.31 µM [falling, full curve] | 4.11 µM [falling, partial curve]
CC(=O)NC1(NC(C)=O)CCN(C)C(c2ccccc2)C1C (stereo unspecified) | -76.1 | 29.1 µM [falling, single point] | 0.411 µM [falling, full curve]
COc1ccccc1OC(=O)c1ccc(SC)cc1OC | 28.3 | 29.1 µM [rising, single point] | –
Cc1cccc(OCCOC(=O)C2CCN(S(=O)(=O)c3ccc(C)c(C)c3)CC2)c1 | 25.5 | 11.2 µM [rising, partial curve] | –
NS(=O)(=O)c1ccc(N/N=C2/CCCc3ccccc32)c([N+](=O)[O-])c1 | -14.7 | 0.112 µM [falling, full curve, poor fit] | –
COc1ccc(C(=O)COC(=O)CN2C(=O)C3C4CCC(C4)C3C2=O)cc1 (stereo unspecified) | – | 4.11 µM [falling, partial curve, poor fit] | –
C/C=C(\C)CN1CCC(n2nccc2NC(=O)CCc2ccccc2)CC1 | 6.8 | – | –

SMILES | cell number change [%] | AC50 [1] | AC50 [2]
Cc1[nH]c2ccccc2c1/C=N/Nc1ccc(F)cc1F | -14.9 | 16.4 µM [falling, single point] | –
O=C(NCc1ccco1)c1cc(NS(=O)(=O)c2cccc([N+](=O)[O-])c2)ccc1O | 46.7 | – | –
CC(Sc1nnc(-c2ccc(Cl)cc2)n1C)C(N)=O (stereo unspecified) | 6.51 | – | –
NC(=O)C1CCN(S(=O)(=O)c2ccccc2[N+](=O)[O-])CC1 | 6.82 | 29.1 µM [rising, single point] | –
Nn1c(SCC(=O)Nc2cccnc2Cl)nnc1-c1ccccc1 | 15.6 | – | –
CCN(CC)CC#CCC(OC)(c1ccccc1)c1ccccc1 | -65.5 | 16.4 µM [falling, single point] | 18.4 µM [falling, single point]
O=C(Nc1ccc(N2CCN(C(=O)c3cccs3)CC2)c(Cl)c1)c1cccnc1 | 21.6 | – | 2.91 µM [rising, single point]
COc1cccc(NC(=O)c2oc3ccccc3c2NC(=O)c2ccc3c(c2)OCO3)c1 | -3.7 | 7.31 µM [falling, partial curve, poor fit] | –
CCOCCCNC(=O)C1c2ccccc2Oc2ccccc21 | 8.13 | – | –
O=C(OCc1csc(-c2ccccc2)n1)c1cccs1 | 0.917 | 0.0326 µM [falling, full curve] | –
N#CCCOC1(C#CCN2CCCC2)CCCCC1 | – | – | 0.82 µM [rising, full curve, poor fit]
Cc1[nH]n(-c2ccccc2)c(=S)c1C=Nc1cccc([N+](=O)[O-])c1 | -21.6 | – | –
CCn1cc(/C=C(\NC(=O)c2ccccc2F)C(=O)NCCCn2ccnc2)c2ccccc21 | – | – | 1.84 µM [falling, single point]
Cc1cccc(NC(=O)c2c(-c3ccccc3)noc2C)n1 | 47.4 | – | –
CC(C)OC(=O)c1cn(-c2ccccc2)nc1-c1ccco1 | – | – | 2.31 µM [rising, partial curve]
CCCCN(C(=O)NC(=O)Nc1c(C)cc(C)cc1C)S(C)(=O)=O | 22.9 | 5.8 µM [rising, single point] | –
Cc1ccc(-c2cc(C(=O)Nc3cc(C)on3)c3ccccc3n2)cc1 | -48.6 | – | 16.4 µM [falling, partial curve]
C[C@H](NC(=O)c1nc[nH]c1C(=O)N[C@@H](Cc1ccccc1)C(=O)OC(C)(C)C)C(=O)OCc1ccccc1 | – | 18.4 µM [falling, single point] | –
COc1ccc(/C=C(\C#N)C(=O)Nc2cc(S(=O)(=O)N3CCCCC3)ccc2N2CCCCC2)cc1 | 31.6 | 6.51 µM [rising, single point] | 23.1 µM [rising, single point]
Cc1ccc(OCCC(=O)OCC(=O)Nc2ccccc2)cc1 | -17.6 | 29.1 µM [falling, single point] | –
